Here are results for six molecules from PMC2956695.

The target of this experiment is T1, Slm9-3XFLAG (S. pombe) (UniProt O74309).
T1 sequence: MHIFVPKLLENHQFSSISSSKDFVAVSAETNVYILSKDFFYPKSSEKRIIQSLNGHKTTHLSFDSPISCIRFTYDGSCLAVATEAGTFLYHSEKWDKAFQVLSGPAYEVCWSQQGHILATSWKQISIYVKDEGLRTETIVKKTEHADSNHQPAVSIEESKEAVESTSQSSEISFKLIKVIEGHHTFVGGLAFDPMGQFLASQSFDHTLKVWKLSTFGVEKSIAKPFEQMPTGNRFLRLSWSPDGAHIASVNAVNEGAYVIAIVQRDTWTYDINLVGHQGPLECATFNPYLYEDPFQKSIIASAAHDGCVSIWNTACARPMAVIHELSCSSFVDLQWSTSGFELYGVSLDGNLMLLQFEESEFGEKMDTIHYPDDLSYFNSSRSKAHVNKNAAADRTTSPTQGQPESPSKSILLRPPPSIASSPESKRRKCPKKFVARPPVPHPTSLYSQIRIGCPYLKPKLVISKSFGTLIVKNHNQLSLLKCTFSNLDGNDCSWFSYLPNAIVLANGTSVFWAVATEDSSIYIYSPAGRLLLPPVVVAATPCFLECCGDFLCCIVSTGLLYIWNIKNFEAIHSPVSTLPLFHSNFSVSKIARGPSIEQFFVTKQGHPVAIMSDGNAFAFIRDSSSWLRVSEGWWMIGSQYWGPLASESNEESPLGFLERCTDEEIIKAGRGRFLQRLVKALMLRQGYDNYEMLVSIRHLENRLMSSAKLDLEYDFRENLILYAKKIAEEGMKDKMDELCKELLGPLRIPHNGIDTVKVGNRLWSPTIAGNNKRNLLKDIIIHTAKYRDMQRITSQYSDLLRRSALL
In words: affinity purification with mass spectrometry; extracts from 5 g of cells expressing Slm9-FLAG, Dynabeads coupled to anti-FLAG M2 antibody for 15 mins, Benzonase treatment, on-bead tryptic digestion, LC-MS/MS; listed proteins found in at least two independent purifications and absent from four control purifications from untagged cells.

No constants are given. Whether binding was seen depends on the method and setting. In cells and extracts the contact can be indirect. A yes stands for co-enrichment or nearness to the bait. Other partners may have been found. Sequences can lack the tags named with a protein.

B1: Ade1, phosphoribosylamine-glycine ligase (protein, UniProt P20772 1-788)
chain: MEPIIALLIGNGGREHTIAWKLCESPLISKVYVAPGNGGTASNGAESKMENVNIGVCDFEQLVKFALDKDVNLVIPGPELPLVEGIEGHFRRVGIPCFGPSALAARMEGSKVFSKDFMHRNNIPTAVYKSFSNYDHAKSFLDTCTFDVVIKADGLAAGKGVIIPKTKKEAFEALESIMLNEEFGSAGKNVVIEELLEGEELSILTFSDGYTCRSLPPAQDHKRAFDGDKGPNTGGMGCYAPTPVASPKLLETVQSTIIQPTIDGMRHEGYPLVGILFTGLMLTPSGPRVLEYNVRFGDPETQAVLPLLESDLAEIILACVNHRLDAIDIVISRKFSCAVVCVAGGYPGPYNKGDIITFDALKDKNTRIFHAGTSIRDGNVVTNGGRVLAVEATGDSVEAAVRLAYEGVKTVHFDKMFYRKDIAHHALNPKRKTREILTYENSGVSVDNGNEFVQRIKDLVKSTRRPGADADIGGFGGIFDLKQAGWNDPLLVSATDGVGSKLLIALSLNKHDTVGIDLVAMNVNDLVVQGAEPLIFLDYFATGSLDLKVSTSFVEGVVKGCKQAGCALVGGETSEMPGLYHDGHYDANGTSVGAVSRDDILPKPESFSKGDILLGLASDGVHSNGYSLVRKIVEYSDLEYTSVCPWDKNVRLGDSLLIPTRIYVKPLLHVIRKNIVKGMAHITGGGLVENVPRMLPSHLNAIIDVDTWEVPEVFKWLKDAGNVPISDMARTFNMGIGMVVAVASEDAEETMKELTSVGETVYRIGQLVDKESSSERCHLVNLNKWETF
B1: the binding entry is “binds”.

B2: Sir1, sulfite reductase beta subunit (protein, UniProt Q1K9C2 1-1473)
chain: MSVKASINNSQEAVSRIAFRCSDALYVVHPNNSILNGALTESLKDLKKFETLNVSGKVPHVLPLKSHADPFAHIADAILAEEEVASTQPKQITSVVASADALFFATPHLYKLAHEPLVAHVAIESTEAFDFASVRDTGFVILFSGNRPGDSSEAALEDTLETASLAHRLALKLNTGVLHFYSPVYDTTAALENIETLPSKEDAQHARVAHIPIEEKQEDSEKEGNIKEAFVPPKFDQPERDAATSEYLESLSIKPFEYSGSDDATDVLLVFGSAASELAKAAVTSSVAVAIVRVLRPWLPSKLQEVLPTSTKRLTVLEPITSLPRKWDPLYLDVLSSFVASGSSIELFAVRYGLSSSEQATEIIKAVRDNLSGALKPSLVCDFTDGVSQVFVPTPPSIEEAYHKLLHRVFKSRLNIVNDPASSATKQNIPSRLIISPQFALGSVLEYENQRRAFCDEVATLLKEKNSSVSSESLEVLSNWIVSVDNLESPVDPELVISELKKDSSAPIKSLLDRSEFFTNVSHWIIGSDAWAYDLGNSALHQVLCLEKNVNLLIVDTQPYSTREAVRSSSRKKDIGLYAMNFGNAYVASTALYSSYTQLISALLEADKFKGPSVVLAYLPYHSADDDAITVLQETKKAVDIGYWPLYRWTPALEDGEYSDFKLDSERIRRELKTFLERDNYLTQLTLRVPSLARTLTQSFGAEVRHQQNVDSRNALNKLIEGLSGPPLTILFASDGGTAENVAKRLQNRASARGSKCKIMAMDDFPIEELGNEKNVVVLVSTAGQGEFPQNGREFWEAIKGADLNLSELKYGVFGFGDYEYWPRKEDKIYYNRPGKQLDARFVELGAAPLVTLGLGNDQDPDGWETAYNLWEPELWKALGLDNVEIDIDEPKPITNEDIKQASNFLRGTIFEGLADESTGALAESDCQLTKFHGIYMQDDRDIRDERKKQGLEPAYGFMIRARMPAGVCTPEQWIAMDDISTKWGNHTLKITTRQTFQWHGVLKKNLRNTIRNIVKVFLTTLGACGDVARNVTCSSTPNNETIHDQLFAVSKQISNELLPTTSSYHEIWIEDPETVEKRKVAGEAVQDVEPLYGPTYLPRKFKVGVAAPPYNDVDVYTNDVALIAIIENDKVLGFNVGIGGGMGTTHNNKKTYPRLATVVGYVLTDKIMEVVKAILIVQRDNGDRENRKHARLKYTVDTLGVSTFVEKVEEVLGYKFEEARDHPQFIKNHDDFEGWHKTEKNKYWRSIFVENGRIENNGILQFKTGLRELAERLYTEKSEAEFRLTANQHVILFNVAENELGWINEHMAKYKLDNNAFSGLRLSSAACVALPTCGLAMAESERYLPKLITKVEEIVYEAGLQKDSIVMRMTGCPNGCSRPWVAEIACVGKAPNTYNLMLGGGFYGQRLNKLYRSSVQEKEILNLLRPLIKRYALEREDGEHFGDWVIRAGIITAVENGGANGAVHEGVSPEAF
Turning to B2, the binding entry was “binds”.

B3: Hip1, HIRA protein (protein, UniProt P87314 1-932)
chain: MKIKKIPWLGHFDDRGHRLSIFSIHIHPDGSRIATGGLDGTIRIWSTEAINRENENENENEDLPKQLCCMSTHTGTVTSVRFSPNGQYLASGSDDRVVIIWHKEEAIPGLGSTFGSGEKHTENWRSYRRLLGHDNDIQDLCWSYDSQLVVSVGLDSSIIVWNGTTFERLKRIEAHQSHVKGITFDPAGKYFATESDDRTIKVWRVSDFSIEKTITGPFNNSPLSTYFRRPSWSPDGKHIAAPNAMNGPVSCVSIIERGTWTSEINLIGHEGPVEVTAFNPKLFRDKNDKLVCILACGGQDRSLSIWSSALPRPLLSCQNVFQKSIGDVCWSPDGLSLFLCSYDGNVLVCTFEKEEFGDMVSDEEISKALAKYGHGRHGIVLPESAKQLELEETAYAILKKPSSLSTTDPTLVPQSSSTPKSAQKTPQKLPAFLPNRLTAETVDTNKLTASKEQIASPKRPGPSDNGNEIPTKFVQKVTITKEGKKRVAPQLLTTLSATPSTSRLASTQLQHTGSSQLPPQQFSQPINSLPKGGVPILIVGNKTKVNHENDESDQALQEEKIEEGLLKNYYSSLIDSSTSISNINFEAPRYKTNIVHSLNNEQKYVLEVKNGTSEKNPTRIVALENGNTKWMDYLPRPVILVTGSIHFWSIACDDGSLHLYSLTGSRLLPPIMIESKASFLHCNNAYLLCISSSGMVYAWNVVNKTALFTANSLAPILSRVSNNVTIENNSTDIPHVVIASISKEGVPSVTLSTGETYVYSSTMLCWQRITEPWWAIGSREWDSSGLLQSNTQTESQPLKIYEHRTNNVLMDSGRGKLLQKMVADAITEEGYDDFETIVTINHLENKIASARLLKLDDEFLVTSEVYVRLLMHHGLWQKLEEFLGELRTQTKCSIKLSGREVVAKMLVVLRQAVQTDNEFDRANKLIEKYAST
As to B3, the binding result is given as “binds”.

B4: Dfr1, dihydrofolate reductase (protein, UniProt P36591 1-461)
chain: MSKPLKVLCLHGWIQSGPVFSKKMGSVQKYLSKYAELHFPTGPVVADEEADPNDEEEKKRLAALGGEQNGGKFGWFEVEDFKNTYGSWDESLECINQYMQEKGPFDGLIGFSQGAGIGAMLAQMLQPGQPPNPYVQHPPFKFVVFVGGFRAEKPEFDHFYNPKLTTPSLHIAGTSDTLVPLARSKQLVERCENAHVLLHPGQHIVPQQAVYKTGIRDFMFSAPTKEPTKHPRDLTMIVAVSSPNLGIGKKNSMPWHIKQEMAYFANVTSSTESSGQLEEGKSKIMNVVIMGRSCYDSLPKKNRPLKDRINIVITRNSNYNFGLTKKEKMPENLYAADCIDSALDLVAEKYGADSDIQVGKVFIIGGSFLYGSALYHPLTKNLLFTRIHKEYPCDSFFPFEPAESSDWVRKAHPELEKFVGIPVEEGRLKAASSNKEEVEIEFELYGKNDDVNVALEKLSIC
For B4, the binding result was “binds”.

B5: Gpd1, glycerol-3-phosphate dehydrogenase (protein, UniProt P21696 1-385)
chain: MSGYGQQGVSAANIDSIRPKKRLSIGVVGSGNWGTAIAKICGENARAHGHHFRSKVRMWVFEEEIEYKGEKRKLTEVFNEAHENVKYLPGIECPPNVIAVPDVREVARRADILVFVVPHQFIERVCDQMVGLIRPGAVGISCIKGVAVSKEGVRLYSEVISEKLGIYCGVLSGANVANEVAREQFCETTIGFNPPNEVDIPREQIAAVFDRPYFSVVSVDDVAGVALGGALKNVVAMAVGFADGLEWGGNTKAAIMRRGLLEMQKFATTFFDSDPRTMVEQSCGIADLVTSCLGGRNNRCAEAFVKTGKSLETLEKELLGGQLLQGAATSKDVHEFLLTKDMVKDFPLFTAVYNISYEDMDPKDLIIVLQPLKEDSENEGGTETE
On to B5, for which the binding entry was “binds”.

B6: Cct8, chaperonin-containing T-complex theta subunit (protein, UniProt P78921 1-546)
chain: MALRVPKASGPQLFREGYRIMQGVEDAVIRNCNAIRELSEITRTSLGPNGKNKIVVNHLQQTFLTNDAATIIRELEVIHPAAKLVVDATQQQENELGDAANFVVVFTGELLAKAENMIRMGLTPLEIAKGYEMALSHTMEVLEEICADKIETVESEKELIKAIRTCISSKQYGNEDFLSDLVAKAILTVLPKDPSKFNVDNIRVVKIMGSSLYNSQVVKGMVFPREPEGTVTRSKEAKVAVFSCPLDISQTETKGTVLLHNAQEMLDFSKGEENLIESHIKEIYDAGVRVVVTSGNVNDLVLHYLNRFEILVIRVPSKFELRRLCRVVGATPLARMGVPMPEEMGSVDVVETIEIGGDRVTVFRQVEDITRTATIVLRGATKTYLDDLERAIDDGVNIVKALVKDNRLIFGAGASDMQLCIRLISVGEKTPGIYQHAIKQYGEAFEVVPRTISENAGLDPTDVISKLYAAHHKENGESIGVDVECENDGTLDAKEAGIFDVLLAKKSAIRLATETVLTVLNVDQVVMSKPAGGPKPPGPNPHWDDD
For B6, the binding result is “binds”.
